Experimental data from publication PMC5531254, “MRE11 stability is regulated by CK2-dependent interaction with R2TP complex” (Oncogene, 2017).
No constants are given. Whether binding was seen depends on the method and setting. Binding seen in cells or lysates may run through a third protein. Some entries that bind do so weakly or less than the wild type.

Chains of the proteins cited; added tags and fusions are not shown. Lines headed by an entry give the natural chain unless they say otherwise; changes in a name come on top.
UniProt Q9NWS0: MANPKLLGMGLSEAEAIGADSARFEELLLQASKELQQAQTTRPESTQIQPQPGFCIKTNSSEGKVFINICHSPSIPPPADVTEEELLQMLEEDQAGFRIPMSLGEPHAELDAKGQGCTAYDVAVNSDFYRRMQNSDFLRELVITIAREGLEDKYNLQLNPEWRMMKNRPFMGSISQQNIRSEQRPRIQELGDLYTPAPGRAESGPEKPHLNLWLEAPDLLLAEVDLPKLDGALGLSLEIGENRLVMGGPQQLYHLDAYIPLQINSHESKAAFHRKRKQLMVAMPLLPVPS
UniProt O60934: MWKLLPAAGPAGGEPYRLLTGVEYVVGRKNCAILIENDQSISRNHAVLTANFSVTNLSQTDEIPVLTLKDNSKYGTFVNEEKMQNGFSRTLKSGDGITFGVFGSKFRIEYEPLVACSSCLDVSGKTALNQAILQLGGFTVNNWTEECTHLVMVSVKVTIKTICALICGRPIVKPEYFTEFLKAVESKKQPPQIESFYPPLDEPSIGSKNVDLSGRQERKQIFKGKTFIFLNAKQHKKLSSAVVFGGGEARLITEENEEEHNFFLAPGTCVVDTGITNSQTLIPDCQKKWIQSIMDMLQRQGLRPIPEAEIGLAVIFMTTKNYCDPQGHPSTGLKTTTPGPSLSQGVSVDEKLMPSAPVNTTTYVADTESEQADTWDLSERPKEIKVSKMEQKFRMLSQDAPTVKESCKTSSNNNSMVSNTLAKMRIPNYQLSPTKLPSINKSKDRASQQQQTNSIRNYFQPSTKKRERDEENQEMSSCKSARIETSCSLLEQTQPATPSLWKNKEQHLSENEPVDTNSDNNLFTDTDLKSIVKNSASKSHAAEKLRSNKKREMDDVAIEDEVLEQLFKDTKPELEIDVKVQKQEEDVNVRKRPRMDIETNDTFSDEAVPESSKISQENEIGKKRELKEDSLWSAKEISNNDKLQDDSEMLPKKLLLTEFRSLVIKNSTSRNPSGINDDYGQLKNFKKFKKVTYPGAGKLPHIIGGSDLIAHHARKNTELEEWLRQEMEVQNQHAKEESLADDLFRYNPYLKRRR
UniProt Q92878: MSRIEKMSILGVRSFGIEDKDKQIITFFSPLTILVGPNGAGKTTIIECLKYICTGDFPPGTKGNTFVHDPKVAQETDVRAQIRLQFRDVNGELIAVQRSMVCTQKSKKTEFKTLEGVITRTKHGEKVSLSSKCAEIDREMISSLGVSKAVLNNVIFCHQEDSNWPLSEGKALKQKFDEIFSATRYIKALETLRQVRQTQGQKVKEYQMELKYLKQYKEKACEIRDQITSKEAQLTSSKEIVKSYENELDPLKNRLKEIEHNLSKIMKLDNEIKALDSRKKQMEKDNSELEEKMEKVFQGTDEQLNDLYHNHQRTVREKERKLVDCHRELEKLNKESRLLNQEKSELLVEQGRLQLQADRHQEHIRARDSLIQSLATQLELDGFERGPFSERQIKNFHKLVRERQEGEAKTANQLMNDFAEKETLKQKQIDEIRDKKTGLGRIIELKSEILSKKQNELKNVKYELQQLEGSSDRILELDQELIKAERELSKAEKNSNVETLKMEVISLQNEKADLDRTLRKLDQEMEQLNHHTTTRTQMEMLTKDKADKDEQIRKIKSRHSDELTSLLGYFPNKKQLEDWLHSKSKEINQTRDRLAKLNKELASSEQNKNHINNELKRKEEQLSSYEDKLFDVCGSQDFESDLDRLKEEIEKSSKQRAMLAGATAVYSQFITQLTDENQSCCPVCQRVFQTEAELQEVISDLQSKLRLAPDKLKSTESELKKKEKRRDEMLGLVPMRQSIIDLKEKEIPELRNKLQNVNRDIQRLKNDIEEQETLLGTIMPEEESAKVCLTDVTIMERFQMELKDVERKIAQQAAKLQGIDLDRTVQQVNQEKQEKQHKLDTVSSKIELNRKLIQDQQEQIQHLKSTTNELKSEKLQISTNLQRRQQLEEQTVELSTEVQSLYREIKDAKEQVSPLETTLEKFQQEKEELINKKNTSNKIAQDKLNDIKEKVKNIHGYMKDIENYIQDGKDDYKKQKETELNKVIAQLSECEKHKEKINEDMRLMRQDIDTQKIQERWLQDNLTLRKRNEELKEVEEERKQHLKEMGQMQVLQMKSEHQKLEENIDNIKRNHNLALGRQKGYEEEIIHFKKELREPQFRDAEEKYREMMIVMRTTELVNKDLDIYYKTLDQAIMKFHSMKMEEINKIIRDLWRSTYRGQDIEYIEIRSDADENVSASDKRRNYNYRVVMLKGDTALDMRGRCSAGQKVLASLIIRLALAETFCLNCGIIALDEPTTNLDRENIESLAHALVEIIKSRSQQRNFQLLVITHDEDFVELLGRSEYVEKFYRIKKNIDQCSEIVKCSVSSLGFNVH

Assays:
[1] = biological target: FLAG-tagged PIH1D1 K64A phospho-binding mutant (UniProt Q9NWS0); assay: co-IP; HEK293T cells transfected with FLAG PIH1D1 WT or KA; IP buffer (50 mM Tris-HCl pH 7.5, 150 mM NaCl, 1% Triton X-100, EtBr 50 μg/ml), anti-FLAG M2 affinity gel 2 h; immunoblot for RAD50, MRE11, NBS1
[2] = biological target: FLAG-tagged wild-type PIH1D1 (UniProt Q9NWS0); assay: as above

| Substance | binding [1] | binding [2] |
| --- | --- | --- |
| NBS1 (endogenous, HEK293T) (from UniProt O60934 1-754) | no binding | binds |
| RAD50 (endogenous, HEK293T) (from UniProt Q92878 1-1312) | no binding | binds |
